No constants are given. Whether binding was seen depends on the method and setting. Binding seen in cells or lysates may run through a third protein. Some binding calls cover weakened binding; strength is not graded here. For some assays here: Sequences can lack the tags named with a protein.

By UniProt entry, the sequences of proteins in these tests, tags left out.
UniProt Q9UKV8: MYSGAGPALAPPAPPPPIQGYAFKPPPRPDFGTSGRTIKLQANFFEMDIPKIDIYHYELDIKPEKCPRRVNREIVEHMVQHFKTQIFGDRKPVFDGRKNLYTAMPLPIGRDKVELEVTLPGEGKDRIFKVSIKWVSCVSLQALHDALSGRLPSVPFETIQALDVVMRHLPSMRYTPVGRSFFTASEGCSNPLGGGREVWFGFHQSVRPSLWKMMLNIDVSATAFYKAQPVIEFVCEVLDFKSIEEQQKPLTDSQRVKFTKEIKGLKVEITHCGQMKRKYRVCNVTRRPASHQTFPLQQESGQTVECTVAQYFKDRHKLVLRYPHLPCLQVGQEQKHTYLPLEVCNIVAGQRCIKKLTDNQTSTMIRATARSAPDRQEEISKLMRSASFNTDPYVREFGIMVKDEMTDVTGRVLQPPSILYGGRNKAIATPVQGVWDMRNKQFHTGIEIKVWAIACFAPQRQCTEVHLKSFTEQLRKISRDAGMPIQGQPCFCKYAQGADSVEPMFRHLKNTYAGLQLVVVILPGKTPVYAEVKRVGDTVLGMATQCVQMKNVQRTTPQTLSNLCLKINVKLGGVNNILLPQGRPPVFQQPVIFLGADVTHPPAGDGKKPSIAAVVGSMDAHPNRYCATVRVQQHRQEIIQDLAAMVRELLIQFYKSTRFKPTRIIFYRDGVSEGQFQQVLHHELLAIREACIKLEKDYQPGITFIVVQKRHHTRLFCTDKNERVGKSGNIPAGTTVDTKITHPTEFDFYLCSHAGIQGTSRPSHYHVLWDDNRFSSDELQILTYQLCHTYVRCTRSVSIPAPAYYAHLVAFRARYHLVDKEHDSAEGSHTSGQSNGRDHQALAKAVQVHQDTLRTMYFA
UniProt Q9UPY3: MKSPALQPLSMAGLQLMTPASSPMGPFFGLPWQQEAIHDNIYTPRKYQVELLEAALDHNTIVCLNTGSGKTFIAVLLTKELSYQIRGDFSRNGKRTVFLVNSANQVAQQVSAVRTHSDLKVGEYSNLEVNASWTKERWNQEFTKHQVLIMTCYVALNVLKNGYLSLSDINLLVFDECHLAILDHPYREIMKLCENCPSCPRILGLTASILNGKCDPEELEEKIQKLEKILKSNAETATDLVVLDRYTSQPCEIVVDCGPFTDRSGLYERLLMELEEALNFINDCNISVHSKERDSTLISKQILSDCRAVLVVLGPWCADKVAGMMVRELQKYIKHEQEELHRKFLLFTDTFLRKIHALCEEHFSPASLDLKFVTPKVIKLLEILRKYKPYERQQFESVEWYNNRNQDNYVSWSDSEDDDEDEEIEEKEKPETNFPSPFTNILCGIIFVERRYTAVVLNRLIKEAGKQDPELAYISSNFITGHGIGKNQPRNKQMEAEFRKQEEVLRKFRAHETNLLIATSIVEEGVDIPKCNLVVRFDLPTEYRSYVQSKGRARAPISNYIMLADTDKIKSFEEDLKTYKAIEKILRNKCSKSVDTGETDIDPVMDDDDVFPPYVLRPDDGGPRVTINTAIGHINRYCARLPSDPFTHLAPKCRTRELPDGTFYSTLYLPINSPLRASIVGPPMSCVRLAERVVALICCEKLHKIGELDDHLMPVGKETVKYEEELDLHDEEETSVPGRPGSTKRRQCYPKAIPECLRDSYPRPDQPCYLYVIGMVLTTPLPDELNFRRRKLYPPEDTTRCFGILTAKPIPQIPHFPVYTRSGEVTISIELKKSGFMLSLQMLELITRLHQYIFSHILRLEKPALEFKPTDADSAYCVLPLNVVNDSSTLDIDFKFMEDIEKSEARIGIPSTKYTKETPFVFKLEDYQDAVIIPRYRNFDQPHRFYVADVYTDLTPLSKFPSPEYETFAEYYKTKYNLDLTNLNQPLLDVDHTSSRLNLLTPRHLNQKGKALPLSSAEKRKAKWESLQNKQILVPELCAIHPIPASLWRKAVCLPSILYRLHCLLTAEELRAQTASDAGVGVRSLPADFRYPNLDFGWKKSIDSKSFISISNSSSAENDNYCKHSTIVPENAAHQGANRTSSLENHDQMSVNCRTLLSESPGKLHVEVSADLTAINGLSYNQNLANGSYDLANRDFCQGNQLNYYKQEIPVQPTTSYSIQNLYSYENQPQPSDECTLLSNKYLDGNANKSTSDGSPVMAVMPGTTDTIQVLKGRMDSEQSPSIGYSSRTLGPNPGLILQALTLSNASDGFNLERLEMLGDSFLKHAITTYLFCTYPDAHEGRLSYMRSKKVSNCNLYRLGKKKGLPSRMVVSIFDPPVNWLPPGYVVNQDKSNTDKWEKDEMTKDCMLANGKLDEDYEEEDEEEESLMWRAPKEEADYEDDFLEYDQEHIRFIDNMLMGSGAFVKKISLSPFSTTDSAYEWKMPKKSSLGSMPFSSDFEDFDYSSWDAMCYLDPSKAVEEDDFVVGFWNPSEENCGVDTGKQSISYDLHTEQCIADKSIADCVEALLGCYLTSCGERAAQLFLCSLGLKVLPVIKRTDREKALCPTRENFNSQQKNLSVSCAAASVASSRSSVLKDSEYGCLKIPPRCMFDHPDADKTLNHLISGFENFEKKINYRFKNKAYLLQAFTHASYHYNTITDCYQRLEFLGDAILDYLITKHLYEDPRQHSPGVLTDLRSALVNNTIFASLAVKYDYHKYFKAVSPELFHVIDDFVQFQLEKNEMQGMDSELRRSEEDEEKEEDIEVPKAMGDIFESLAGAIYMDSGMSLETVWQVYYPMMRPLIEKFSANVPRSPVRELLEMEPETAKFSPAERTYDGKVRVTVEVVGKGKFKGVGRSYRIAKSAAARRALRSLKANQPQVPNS

In test [1] the target is T1, RIG-I, endogenous (human (endogenous in A549)) (UniProt O95786).
T1 sequence: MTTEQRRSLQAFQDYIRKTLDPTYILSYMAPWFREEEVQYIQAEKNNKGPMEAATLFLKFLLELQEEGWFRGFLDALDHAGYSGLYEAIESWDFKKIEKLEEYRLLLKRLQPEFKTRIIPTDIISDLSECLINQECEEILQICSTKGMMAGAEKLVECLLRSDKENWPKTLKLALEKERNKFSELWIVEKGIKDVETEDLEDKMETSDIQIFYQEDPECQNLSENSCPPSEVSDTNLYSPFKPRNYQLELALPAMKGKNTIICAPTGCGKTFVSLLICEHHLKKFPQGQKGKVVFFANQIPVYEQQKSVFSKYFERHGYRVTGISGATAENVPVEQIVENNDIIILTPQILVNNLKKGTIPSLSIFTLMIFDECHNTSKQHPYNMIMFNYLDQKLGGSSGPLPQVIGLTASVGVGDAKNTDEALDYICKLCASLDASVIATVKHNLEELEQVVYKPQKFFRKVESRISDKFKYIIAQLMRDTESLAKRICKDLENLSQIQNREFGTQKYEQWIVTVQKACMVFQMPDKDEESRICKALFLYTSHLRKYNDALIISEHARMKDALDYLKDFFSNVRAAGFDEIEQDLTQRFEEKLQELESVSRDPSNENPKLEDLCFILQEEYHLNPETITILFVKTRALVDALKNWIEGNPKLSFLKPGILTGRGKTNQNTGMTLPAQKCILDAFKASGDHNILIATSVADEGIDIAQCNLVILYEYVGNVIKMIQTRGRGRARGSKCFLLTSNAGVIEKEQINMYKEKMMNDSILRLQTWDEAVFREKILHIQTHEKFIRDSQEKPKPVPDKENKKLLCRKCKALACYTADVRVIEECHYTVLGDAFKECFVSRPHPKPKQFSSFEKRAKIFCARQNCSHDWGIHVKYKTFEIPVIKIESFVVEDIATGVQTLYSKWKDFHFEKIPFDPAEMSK
Put plainly: co-IP.

Test [2] concerns the target Argonaute 2 (AGO2), endogenous (human (endogenous in A549)) (UniProt Q9UKV8). Put plainly: co-IP; Figure S5 (legend not shown); interaction with DICER under infection conditions.
The target of test [3] is T2, Flag-RIG-I, full length (FL) (UniProt O95786).
T2 sequence: T1 sequence
Put plainly: co-IP.

Another test addresses T3, Flag-RIG-I- CARD-1∼230aa (UniProt O95786).
T3 sequence: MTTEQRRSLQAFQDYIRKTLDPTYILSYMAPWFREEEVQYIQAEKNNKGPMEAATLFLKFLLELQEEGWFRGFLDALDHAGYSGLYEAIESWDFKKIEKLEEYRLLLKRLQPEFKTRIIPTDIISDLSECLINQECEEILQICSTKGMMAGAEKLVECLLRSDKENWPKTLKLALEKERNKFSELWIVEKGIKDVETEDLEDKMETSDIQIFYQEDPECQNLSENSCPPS
Put plainly: co-IP.

Test [4] deals with T4, Flag-RIG-I-Helicase-231∼790aa (UniProt O95786).
T4 sequence: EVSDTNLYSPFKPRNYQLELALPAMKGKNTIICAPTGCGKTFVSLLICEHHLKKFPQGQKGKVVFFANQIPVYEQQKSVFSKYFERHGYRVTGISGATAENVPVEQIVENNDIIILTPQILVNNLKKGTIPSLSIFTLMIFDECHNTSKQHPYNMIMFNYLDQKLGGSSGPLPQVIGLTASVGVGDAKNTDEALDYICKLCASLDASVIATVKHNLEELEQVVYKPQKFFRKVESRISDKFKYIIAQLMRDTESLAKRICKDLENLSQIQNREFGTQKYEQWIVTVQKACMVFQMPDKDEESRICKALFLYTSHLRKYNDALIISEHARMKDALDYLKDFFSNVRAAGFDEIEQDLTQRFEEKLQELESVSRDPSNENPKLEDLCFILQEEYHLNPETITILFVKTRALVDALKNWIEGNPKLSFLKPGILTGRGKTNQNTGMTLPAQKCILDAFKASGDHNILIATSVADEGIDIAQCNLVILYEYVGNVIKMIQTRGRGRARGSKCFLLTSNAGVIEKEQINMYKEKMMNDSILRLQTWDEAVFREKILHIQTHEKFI
Put plainly: co-IP.

As for “Argonaute 2 (AGO2), endogenous (from UniProt Q9UKV8 1-859)”, in test [1], the binding result is given as “binds”. Take “DICER, endogenous (from UniProt Q9UPY3 1-1922)”: in test [2], the binding result is “binds”. For “V5-AGO2, full length (from UniProt Q9UKV8 1-859)”, the binding result (in test [3]; in the test with Flag-RIG-I- CARD-1∼230aa; in test [4]) was “binds” each time.
